In the supplement of paper PMC12823440, “Inhibitors supercharge kinase turnover through native proteolytic circuits” (Nature, 2025):
Structures can show the parent of a compound that is named as a salt. The list shows a part of the results. Hit calls seldom repeat between salt and free forms of one compound.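 Kinases, fused to nanoluciferase, were expressed in K562 cells; luminescence was measured every 4 h from 2 to 18 h as percent of control (DMSO = 100%, positive control = 0%). A time point is decreased if signal falls significantly (2 sigma). Hits were called by the authors by a rule that is not shown; the count of time points alone does not decide it.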

Chains of the proteins cited; added tags and fusions are not shown.
UniProt P15056, whole entry, looked up: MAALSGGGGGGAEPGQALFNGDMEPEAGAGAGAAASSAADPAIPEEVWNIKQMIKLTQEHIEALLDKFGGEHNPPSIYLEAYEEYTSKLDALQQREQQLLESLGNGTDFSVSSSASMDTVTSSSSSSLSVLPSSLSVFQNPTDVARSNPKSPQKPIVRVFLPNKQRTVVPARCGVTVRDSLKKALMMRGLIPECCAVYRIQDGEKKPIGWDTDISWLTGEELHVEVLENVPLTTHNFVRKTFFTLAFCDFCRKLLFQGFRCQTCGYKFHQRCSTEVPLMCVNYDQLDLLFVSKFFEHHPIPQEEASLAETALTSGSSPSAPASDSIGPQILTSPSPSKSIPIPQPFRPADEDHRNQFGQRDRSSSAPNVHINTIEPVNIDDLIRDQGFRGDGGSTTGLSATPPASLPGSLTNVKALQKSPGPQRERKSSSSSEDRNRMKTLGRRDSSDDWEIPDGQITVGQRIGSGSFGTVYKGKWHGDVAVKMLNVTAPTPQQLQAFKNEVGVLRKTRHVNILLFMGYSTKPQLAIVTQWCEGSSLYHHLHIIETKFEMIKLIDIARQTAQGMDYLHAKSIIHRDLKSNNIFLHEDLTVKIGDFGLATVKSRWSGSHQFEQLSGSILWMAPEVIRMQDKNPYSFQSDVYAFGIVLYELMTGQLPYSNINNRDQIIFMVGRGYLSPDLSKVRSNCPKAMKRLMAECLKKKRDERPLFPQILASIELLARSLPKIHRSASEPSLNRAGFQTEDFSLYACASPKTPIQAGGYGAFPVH

Each compound was assayed against BRAF (UniProt P15056) (assay: number of time points (of 5) at which kinase-Nluc abundance scored as decreased, DMSO-normalised (count); higher = more persistent destabilization). Settings: K562; 2-18 h.

Row | SMILES | number of time points
1 | COc1c(Nc2cc(C)[nH]n2)nc(Sc2ccc(S(=O)(=O)Cc3cccc([N+](=O)[O-])c3F)cc2F)nc1N1CCCCC1 [Centrinone-B] (2.5 µM) | 0
2 | COc1ccc(/C=C/C(=O)C2(C(=O)/C=C/c3ccc(OC)c(OC)c3)CCCCC2)cc1OC (2.5 µM) | 0
3 | CN(C)c1nc2c(Br)c(Br)c(Br)c(Br)c2[nH]1 (10 µM) | 0
4 | O=C(Nc1nc(=O)n(Cc2ccc(Cl)cc2)s1)c1ccc(Cl)cc1 (10 µM) | 0
5 | Nc1n[nH]c2nc(-c3ccc(NS(=O)(=O)c4cc(Cl)ccc4F)cc3)cnc12 (10 µM) | 0

What follows are compounds tested on BRAF_V600E in the same assay as above. Settings: K562; 2-18 h.

Row | SMILES | number of time points
6 | CN1CC[C@@H](c2c(O)cc(O)c3c(=O)cc(-c4ccc(C(F)(F)F)cc4Cl)oc23)[C@@H]1CO [Voruciclib (hydrochloride)] (10 µM) | 0
7 | O=c1cc(-c2cccc3c2Sc2ccccc2S3)oc(N2CCOCC2)c1 (10 µM) | 0
8 | O=[N+]([O-])c1ccc(Nc2nc(N3CCOCC3)nc(N3CCOCC3)n2)cc1 (10 µM) | 0
9 | c1ccc(-c2nc(=NCCN3CCOCC3)sn2-c2ccccc2)cc1 [VP3.15 (dihydrobromide)] (10 µM) | 0
10 | Nc1nc(N)c2nc(-c3cccc(O)c3)cnc2n1 (10 µM) | 0
11 | Nc1ncnc2c1c(-c1ccc(Oc3ccccc3)cc1)nn2C1CCN(CCOCCOCCOc2ccc3c(c2)CN(C2CCC(=O)NC2=O)C3=O)CC1 (centres undefined) (2.5 µM) | 0
12 | C=CC(=O)N1C[C@H](COc2nc(Nc3cnn(C)c3)nc3[nH]cc(Cl)c23)[C@@H](OC)C1 (2.5 µM) | 0
13 | Cc1nn(C)c2c1C(c1ccc(C(F)(F)F)cc1)C(C#N)=C(N)O2 (centres undefined) (10 µM) | 0
14 | O=C(NC1CCOCC1)c1ccc(-c2cc(-c3c[nH]nc3-c3ccccn3)ccn2)cc1 (10 µM) | 0
15 | CC/C(=N\NC(=O)c1ccnc(NCCCN2CCOCC2)c1)c1ccc(Cl)cc1O (2.5 µM) | 0
16 | COc1cc(N2CCOCC2)ccc1Nc1ncc(Cl)c(Nc2ccccc2NS(C)(=O)=O)n1 (2.5 µM) | 0
17 | Cn1cnc([N+](=O)[O-])c1C[N+](C)(C)C/C=C/C(=O)Nc1cc2c(Nc3ccc(Cl)c(Br)c3)ncnc2cn1 [Tarloxotinib (bromide)] (10 µM) | 0
18 | O=C(Nc1cccc(C(F)(F)F)c1)c1cccc2cc(Oc3cc(CO)ncn3)ccc12 (10 µM) | 0
19 | Oc1ccc(/C=C/c2cc(O)cc(O)c2)cc1 [Resveratrol] (10 µM) | 0
20 | O=c1[nH]c(C2CCCN2)nc2c1oc1ccc(Cl)cc12 (centres undefined) [XL413 (hydrochloride)] (10 µM) | 0
21 | CN(c1ccc(NC(=O)Nc2ccc(OC(F)(F)F)cc2)cc1)c1ccnc(Nc2cccc(S(N)(=O)=O)c2)n1 (2.5 µM) | 3
22 | C=C[C@@](C)(/C=C/c1ccc(O)cc1)CCC=C(C)C [Bakuchiol] (10 µM) | 0
23 | COc1cc2ncnc(-n3nc(-c4ccccn4)nc3N)c2cc1OC (10 µM) | 0
24 | CNc1nc(Nc2ccc(C(=O)N3CCOCC3)cc2OC)ncc1Cl (2.5 µM) | 0
25 | CC(C)S(=O)(=O)c1ccc2nccc(Nc3ccc4scnc4c3)c2c1 (10 µM) | 1
26 | CC(C)(O)[C@H]1CC[C@H](Nc2ccc3ncc(-c4cccc(C(F)(F)F)c4)n3n2)CC1 (10 µM) | 0
27 | CCN(CC)c1ccc2cc(-c3nc4cc(C)ccc4o3)c(=O)oc2c1 (10 µM) | 0
28 | CN(C)S(=O)(=O)c1ccc2c(c1)/C(=C/c1cc3c([nH]1)CCCC3)C(=O)N2 (2.5 µM) | 0
29 | C=CC(=O)Nc1cc(Nc2nccc(-n3cc(CN(C)C)c(-c4ccccc4)n3)n2)c(OC)cc1N1CCOCC1 [Lazertinib] (10 µM) | 0
30 | Cc1ccc2c(Nc3cccc(Cl)c3F)nccc2c1NC(=O)c1csc2c(N)ncnc12 [Belvarafenib] (10 µM) | 0
31 | Oc1cc(O)c2c(c1)OC1(c3ccc(O)c(O)c3)Oc3cc(O)c4c(c3C2C1O)OC(c1ccc(O)c(O)c1)C(O)C4 (centres undefined) [Procyanidin A1] (10 µM) | 0
32 | c1ccc(-c2nc3c(c(-n4ccc5cnccc54)n2)CCC3)nc1 (10 µM) | 0
33 | Cc1cc(C)nc(NS(=O)(=O)c2ccc(NC(=S)NC(=O)COc3ccc(Br)cc3Cl)cc2)n1 (2.5 µM) | 0
34 | Cc1ccc(NC(=O)c2ccc(CN(CCN(C)C)C(=O)c3cccnc3)cc2)cc1Nc1nccc(-c2cccnc2)n1 [PDGFRα kinase inhibitor 1] (10 µM) | 0

Taken from the entries so far, 2 compounds:
Row | SMILES | number of time points
26 | CC(C)(O)[C@H]1CC[C@H](Nc2ccc3ncc(-c4cccc(C(F)(F)F)c4)n3n2)CC1 (10 µM) | 0
27 | CCN(CC)c1ccc2cc(-c3nc4cc(C)ccc4o3)c(=O)oc2c1 (10 µM) | 0
